This passage reports binding results from US20160166525A1.

These are yes or no findings as the source states them, for the method shown. Some binding calls cover weakened binding; strength is not graded here.

This assay has as its target T1, very long chain acyl-CoA dehydrogenase (VLCAD), mouse (mouse), P50544.
T1 chain: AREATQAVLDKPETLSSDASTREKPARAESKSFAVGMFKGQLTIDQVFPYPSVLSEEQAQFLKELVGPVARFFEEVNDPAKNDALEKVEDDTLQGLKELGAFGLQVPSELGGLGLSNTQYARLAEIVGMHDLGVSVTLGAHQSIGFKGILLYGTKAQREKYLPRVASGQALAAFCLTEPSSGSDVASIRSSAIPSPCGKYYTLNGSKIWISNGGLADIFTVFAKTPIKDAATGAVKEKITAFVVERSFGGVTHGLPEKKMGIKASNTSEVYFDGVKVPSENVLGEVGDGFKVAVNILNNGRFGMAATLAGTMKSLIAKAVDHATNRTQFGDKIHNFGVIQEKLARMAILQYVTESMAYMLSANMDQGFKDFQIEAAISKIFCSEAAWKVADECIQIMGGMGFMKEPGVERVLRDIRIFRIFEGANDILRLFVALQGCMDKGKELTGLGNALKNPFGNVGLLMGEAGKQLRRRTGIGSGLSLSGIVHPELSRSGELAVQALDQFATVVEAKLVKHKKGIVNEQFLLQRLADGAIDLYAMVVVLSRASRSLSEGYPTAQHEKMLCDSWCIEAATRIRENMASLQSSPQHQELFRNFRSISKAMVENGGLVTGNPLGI
Kind of assay: native gel electrophoresis with Western blot, liver mitochondria fractions. The settings on record: remark: other sources report otherwise.

B1: very long chain acyl-CoA dehydrogenase (VLCAD), mouse, P50544 42-656 (enzyme, UniProt P50544 42-656, looked up)
chain: T1 chain
In the case of B1, the binding result is listed as “binds”.
